Test system: bloodstream form T. brucei (strain 221)
Assay: Trypanocidal activity against cultured bloodstream form T. brucei (resazurin)
Details: ratio EeAChE IC50 / T. brucei IC50

Compound	fold more potent against T. brucei than against EeAChE
Clc1ccc2nc(-c3cccs3)c(CCCN3CCCC3)cc2c1 [Compound 49, N-{3-[6-Chloro-2-(2-thienyl)quinolin-3-yl]propyl}pyrrolidine]	~8 fold
NCc1ccc(-c2nc3ccc(Cl)cc3c3c2CCCO3)cc1 [Compound 39, 4-{9-Chloro-3,4-dihydro-2H-pyrano[3,2-c]quinolin-5-yl}benzylamine]	> 20 fold

From publication PMC4638191, “Multicomponent reaction-based synthesis and biological evaluation of tricyclic heterofused quinolines with multi-trypanosomatid activity” (European Journal of Medicinal Chemistry, 2015)
